Reference: publication PMC7022278, “Alpha-Amylase and Alpha-Glucosidase Enzyme Inhibition and Antioxidant Potential of 3-Oxolupenal and Katononic Acid Isolated from Nuxia oppositifolia” (Biomolecules, 2019)

Test system: α-glucosidase
Test: Fluorescence quenching-based binding study, α-glucosidase
Conditions: 298 K, pH 6.8
Procedure: Proteins were excited at 295 nm and the fluorescence spectra were recorded in the 300–450 nm range. The excitation and emission slit widths were set at 5 nm each. The concentration of proteins was fixed at 2 µM while the concentration of quenchers was varied. The inner filter effect contributed by quenchers was corrected using the following relation. (2) Fcorr=Fobs×e^(Aex+Aem)/2 where Fcorr is the corrected fluorescence intensity, Fobs is the observed fluorescence intensity, Aex is the absorbance at the excitation wavelength, and Aem is the absorbance at the emission wavelength.
Observing quenching in the fluorescence intensity of a protein in the presence of a ligand is a powerful tool in determining the binding parameters such as binding affinity and Gibb’s free energy of stabilization. Here, we have followed quenching in the fluorescence intensity of α-amylase and α-glucosidase in the presence of 3-oxolupenal and katononic acid at 298 K (Figure 4 and Figure 5). […] The binding parameters for the interaction were deduced using the following Stern–Volmer and modified Stern–Volmer equations. (3) Fo/F=1+KSV[Q]=1+kqτo[Q] […]

Row | SMILES | Number of Binding Sites n
1 | C=C(C=O)[C@@H]1CC[C@]2(C)CC[C@]3(C)[C@H](CC[C@@H]4[C@@]5(C)CCC(=O)C(C)(C)[C@@H]5CC[C@]43C)[C@@H]12 [3-oxolupenal] | 0.9133
2 | CC1(C)C(=O)CC[C@]2(C)[C@H]3CC=C4[C@@H]5C[C@](C)(C(=O)O)CC[C@]5(C)CC[C@@]4(C)[C@]3(C)CC[C@@H]12 [Katononic acid, katononic acid] | 0.8239
